Measurements as given in article PMC10047809.
No constants are given. Whether binding was seen depends on the method and setting. In cells and extracts the contact can be indirect. Some binding calls cover weakened binding; strength is not graded here.

Amino acid sequences for entries named in this document (tags omitted). A change or cut given only in a name is not applied to a line headed by its entry. Chains listed by the source or under a name are the forms on record and can include a tag or linker. Residues count along the entry.
UniProt O15550: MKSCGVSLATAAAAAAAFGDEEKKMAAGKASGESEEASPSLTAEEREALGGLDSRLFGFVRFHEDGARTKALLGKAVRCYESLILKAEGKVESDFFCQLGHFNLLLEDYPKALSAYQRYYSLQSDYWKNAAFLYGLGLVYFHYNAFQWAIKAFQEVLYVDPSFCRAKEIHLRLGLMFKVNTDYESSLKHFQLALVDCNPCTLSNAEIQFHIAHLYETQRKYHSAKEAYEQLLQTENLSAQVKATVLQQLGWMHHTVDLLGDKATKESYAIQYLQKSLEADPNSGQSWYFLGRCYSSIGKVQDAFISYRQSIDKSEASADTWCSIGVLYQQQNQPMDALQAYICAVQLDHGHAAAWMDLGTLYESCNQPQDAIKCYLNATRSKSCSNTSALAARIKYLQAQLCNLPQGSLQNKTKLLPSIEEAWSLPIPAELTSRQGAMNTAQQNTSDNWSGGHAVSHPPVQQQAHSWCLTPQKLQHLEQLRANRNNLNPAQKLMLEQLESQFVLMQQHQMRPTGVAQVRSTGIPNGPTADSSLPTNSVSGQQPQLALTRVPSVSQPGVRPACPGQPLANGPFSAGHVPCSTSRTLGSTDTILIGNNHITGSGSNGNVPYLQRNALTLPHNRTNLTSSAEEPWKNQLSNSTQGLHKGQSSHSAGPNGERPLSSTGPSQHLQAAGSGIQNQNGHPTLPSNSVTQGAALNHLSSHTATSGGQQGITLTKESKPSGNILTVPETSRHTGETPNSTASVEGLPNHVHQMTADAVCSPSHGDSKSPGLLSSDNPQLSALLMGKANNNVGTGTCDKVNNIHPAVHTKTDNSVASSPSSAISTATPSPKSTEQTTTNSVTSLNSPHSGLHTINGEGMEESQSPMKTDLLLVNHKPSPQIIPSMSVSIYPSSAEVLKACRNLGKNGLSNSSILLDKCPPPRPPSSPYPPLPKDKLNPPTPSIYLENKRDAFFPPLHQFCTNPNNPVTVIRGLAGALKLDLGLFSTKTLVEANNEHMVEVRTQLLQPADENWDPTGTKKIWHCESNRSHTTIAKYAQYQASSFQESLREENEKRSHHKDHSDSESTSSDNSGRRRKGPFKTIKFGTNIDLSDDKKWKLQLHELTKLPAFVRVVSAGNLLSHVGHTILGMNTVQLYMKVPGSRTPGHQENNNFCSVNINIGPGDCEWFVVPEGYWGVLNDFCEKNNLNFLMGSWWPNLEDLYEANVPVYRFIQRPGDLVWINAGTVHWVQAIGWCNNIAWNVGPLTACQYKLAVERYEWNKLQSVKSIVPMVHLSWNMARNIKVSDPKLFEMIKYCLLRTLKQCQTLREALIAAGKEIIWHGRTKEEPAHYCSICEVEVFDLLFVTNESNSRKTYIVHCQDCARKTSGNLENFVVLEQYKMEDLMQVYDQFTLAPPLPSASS
FLAG-tagged truncated KDM6A, E895* mutant (as in the T24 cell line): residues 1-894 of O15550

Experiments:
[1] = biological target: FLAG-tagged full-length KDM6A (wild type) (UniProt O15550); experiment: co-IP; lysates of HEK293T cells 48 h after transfection with FLAG-KDM6A or FLAG-E895* KDM6A (untransfected cells as control); lysis buffer 50 mM Tris-HCl pH 7.4, 150 mM NaCl, 1 mM EDTA, 1% Triton X-100; bound overnight at 4 °C to anti-FLAG affinity gel, washed three times with TBS; Western blot for KDM6A, HES1 and TLE1/2/3/4
[2] = biological target: FLAG-tagged truncated KDM6A, E895* mutant (as in the T24 cell line) (UniProt O15550); experiment: as above

B1: HES1 (protein, UniProt Q14469 1-280)
chain: MPADIMEKNSSSPVAATPASVNTTPDKPKTASEHRKSSKPIMEKRRRARINESLSQLKTLILDALKKDSSRHSKLEKADILEMTVKHLRNLQRAQMTAALSTDPSVLGKYRAGFSECMNEVTRFLSTCEGVNTEVRTRLLGHLANCMTQINAMTYPGQPHPALQAPPPPPPGPGGPQHAPFAPPPPLVPIPGGAAPPPGGAPCKLGSQAGEAAKVFGGFQVVPAPDGQFAFLIPNGAFAHSGPVIPVYTSNSGTSVGPNAVSPSSGPSLTADSMWRPWRN
binding [1]: binds | binding [2]: binds
